From paper PMC7101311 (Nature Communications, 2020)
No constants are given. Whether binding was seen depends on the method and setting. Binding calls can cover weak binding; strength is not graded here.

Chains of the proteins cited; added tags and fusions are not shown. Lines headed by an entry give the natural chain unless they say otherwise; changes in a name come on top.
UniProt Q9V2F4: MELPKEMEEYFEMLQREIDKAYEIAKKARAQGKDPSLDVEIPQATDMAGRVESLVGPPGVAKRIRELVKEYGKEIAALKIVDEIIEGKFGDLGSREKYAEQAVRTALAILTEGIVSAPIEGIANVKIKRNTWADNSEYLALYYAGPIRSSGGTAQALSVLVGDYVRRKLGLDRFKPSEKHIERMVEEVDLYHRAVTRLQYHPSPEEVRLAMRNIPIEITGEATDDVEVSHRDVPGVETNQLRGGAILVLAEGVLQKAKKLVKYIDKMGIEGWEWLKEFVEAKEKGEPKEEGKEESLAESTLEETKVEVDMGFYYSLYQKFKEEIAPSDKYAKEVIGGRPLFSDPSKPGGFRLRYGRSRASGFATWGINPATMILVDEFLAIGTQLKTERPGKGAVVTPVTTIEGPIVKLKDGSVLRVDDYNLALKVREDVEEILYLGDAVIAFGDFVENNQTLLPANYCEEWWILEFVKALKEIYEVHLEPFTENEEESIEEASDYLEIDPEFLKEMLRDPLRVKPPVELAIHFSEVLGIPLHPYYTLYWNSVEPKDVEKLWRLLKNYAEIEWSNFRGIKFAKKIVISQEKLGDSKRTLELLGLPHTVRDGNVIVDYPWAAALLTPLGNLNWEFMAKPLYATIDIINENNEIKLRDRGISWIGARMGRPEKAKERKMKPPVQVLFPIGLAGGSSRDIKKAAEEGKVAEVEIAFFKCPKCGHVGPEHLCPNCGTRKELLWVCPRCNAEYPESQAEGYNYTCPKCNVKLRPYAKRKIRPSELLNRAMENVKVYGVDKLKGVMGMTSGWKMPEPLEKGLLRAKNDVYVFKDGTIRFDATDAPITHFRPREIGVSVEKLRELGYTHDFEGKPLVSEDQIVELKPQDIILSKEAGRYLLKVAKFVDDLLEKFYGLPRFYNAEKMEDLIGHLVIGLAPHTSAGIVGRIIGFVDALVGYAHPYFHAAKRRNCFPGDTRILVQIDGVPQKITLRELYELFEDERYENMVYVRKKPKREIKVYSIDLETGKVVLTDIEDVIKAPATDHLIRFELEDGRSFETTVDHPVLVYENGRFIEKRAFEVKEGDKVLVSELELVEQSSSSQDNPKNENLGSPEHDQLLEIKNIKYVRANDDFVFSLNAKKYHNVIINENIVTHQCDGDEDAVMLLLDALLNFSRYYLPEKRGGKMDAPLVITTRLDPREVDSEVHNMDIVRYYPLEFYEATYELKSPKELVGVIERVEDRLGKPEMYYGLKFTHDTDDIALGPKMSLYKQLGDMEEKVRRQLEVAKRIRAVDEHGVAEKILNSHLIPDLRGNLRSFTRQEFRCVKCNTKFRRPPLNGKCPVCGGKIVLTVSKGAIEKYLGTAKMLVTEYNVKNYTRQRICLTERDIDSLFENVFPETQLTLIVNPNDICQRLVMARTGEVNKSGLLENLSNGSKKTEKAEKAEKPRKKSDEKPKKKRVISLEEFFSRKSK

Molecular target: PolD DP2 subunit from Pyrococcus abyssi (Pyrococcus abyssi) (UniProt Q9V2F4)
Experiment: cryo-EM structure; 0.4 µM PolD (DP1 H451A), 1.2 µM PCNA, 0.7 µM primed DNA duplex (18-mer primer, 7-nt overhang), 0.1 mM dAMPCPP, buffer F (20 mM Na-Hepes pH 8, 0.01 mM NaCl, 2 mM Mg-acetate), 20 min at 4 °C; single-particle cryo-EM, 3.77 Å; both purified

B1: PCNA (proliferative cell nuclear antigen) from Pyrococcus abyssi (natural protein, UniProt Q9UYX8 1-249, looked up)
chain: MPFEIVFEGAKEFAQLIETASRLIDEAAFKVTEEGISMRAMDPSRVVLIDLNLPASIFSKYEVDGEETIGVNMDHLKKVLKRGKAKETLILRKGEENFLEISLQGTATRTFKLPLIDVEEIEVDLPELPFTAKVVILGDVIKEAVKDASLVSDSMKFIAKENEFTMRAEGETQEVEVKLTLEDEGLLDIEVQEETKSAYGISYLSDMVKGLGKADEVTIKFGNEMPMQMEYYIRDEGRLIFLLAPRVEE
notes: PCNA, Pyrococcus abyssi; open reading frame optimized and synthesized, in pET28-a(+) with a thrombin-cleavable N-terminal 6xHis tag; PCNA as used in cryo-EM, crystallisation, BLI (analyte) and primer extension; also called sliding clamp; source: E. coli BL21-CodonPlus (DE3)-RIPL, purified (heat step, HisTrap, heparin, size exclusion)
- binding: binds
